# Source: the supplement of paper PMC7824004
# The other results are listed elsewhere or left out. The data scatter; read single values as rough.
# System: Candida albicans SN425
# Assay: biofilm OD600 B-score; higher = more biofilm (less inhibition)
# Settings: 10 µM; assay detail: High-throughput adherence inhibition optical density biofilm assay with C. albicans SN425 in RPMI-1640/MOPS pH 7.0, 384-well plates. …
# Method: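 High-throughput adherence inhibition optical density biofilm assay with C. albicans SN425 in RPMI-1640/MOPS pH 7.0, 384-well plates. Compound (10 µM) was present only during the 90 min adherence step, then washed out, and the biofilm grew 24 h without compound. Biofilm was read as OD600 after removing the media. Scores are the difference from the mean in standard deviations and the plate B-score.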
row,Structure (SMILES),biofilm OD600 B-score
1,COc1ccccc1Cc1nc(-c2cccnc2)no1,-0.587
2,C=CCNc1nc(-c2c(C)nc3ccccn23)cs1,-0.0119
3,Nc1nncn1C(=O)c1cccc(Cl)c1,0.0602
4,Cc1cc(C)c(S(=O)(=O)N2CCOCC2)c(C)c1,0.101
5,COc1cc(SC)ccc1C(=O)N1CCCC1,0.94
6,CN(CCc1ccccn1)C(=O)c1ccccc1F,-4.39
7,COc1c(S(=O)(=O)NCCCN2CCOCC2)ccc(Cl)c1Cl,-0.685
8,COc1ccc(NCCNc2ccc(OC)cc2)cc1,-0.53
9,Brc1ccc(CN2CCc3ccccc3C2)o1,-0.342
10,O=C(Nc1nnc(C2CC2)s1)c1csc2ccccc12,1.1
11,O=C(Nc1nc(-c2ccccc2)cs1)c1ccncc1,-0.0846
12,Nc1cccc2ccc(N3CCOCC3)nc12,-0.594
13,O=C(Nc1ccccc1F)c1ccc2snnc2c1,-0.433
14,COc1ccccc1OCC(=O)Nc1ccc(F)c(Cl)c1,1.22
15,CCCN(CCO)CCCc1ccccc1,-0.247
16,NNc1nc(Nc2ccccc2)nc(N2CCOCC2)n1,-0.8
17,CC(C)NC(=O)c1ccccc1NC(=O)c1ccccc1,-1.76
18,C=CCN(CC=C)C(=O)Nc1cccc(Cl)c1,-0.288
19,Cc1ccc(C(=O)N2CCC(C(=O)NCc3cccnc3)CC2)cc1,-1.61
20,CCN(CC)c1ccc(-c2nocc2C#N)cc1,0.962
21,Brc1ccc(OCCCn2ccnc2)cc1,1.8
22,Cc1cc(C)c2c(=O)[nH]c(SCC(N)=O)nc2n1,-1.27
23,CCC(NC(=O)Cc1ccccc1)C(=O)O (centres undefined),-0.735
24,CCC(C(=O)Nc1ccc(C(N)=O)cc1)c1ccccc1 (centres undefined),-0.167

# Taken from the results shown, 2 compounds:
row,Structure (SMILES),biofilm OD600 B-score
23,CCC(NC(=O)Cc1ccccc1)C(=O)O (centres undefined),-0.735
24,CCC(C(=O)Nc1ccc(C(N)=O)cc1)c1ccccc1 (centres undefined),-0.167
